Reference: publication PMC7866192
No constants are given. Whether binding was seen depends on the method and setting. Binding can be weak; no strength is given.

Sequences of proteins named here, by UniProt entry; tags and fusion partners are left off. A change or cut given only in a name is not applied to a line headed by its entry.
UniProt A0A8F3BPS4: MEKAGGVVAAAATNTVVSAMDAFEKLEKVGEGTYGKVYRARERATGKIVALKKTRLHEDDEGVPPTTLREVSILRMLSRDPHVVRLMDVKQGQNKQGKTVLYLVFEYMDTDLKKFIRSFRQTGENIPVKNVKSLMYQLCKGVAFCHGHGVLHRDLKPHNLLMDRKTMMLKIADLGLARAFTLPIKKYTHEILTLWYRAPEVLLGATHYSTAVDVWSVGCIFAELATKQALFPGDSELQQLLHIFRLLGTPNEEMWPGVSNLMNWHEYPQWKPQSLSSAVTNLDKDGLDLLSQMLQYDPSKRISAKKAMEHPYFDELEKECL
UniProt A0A8F2YJJ4: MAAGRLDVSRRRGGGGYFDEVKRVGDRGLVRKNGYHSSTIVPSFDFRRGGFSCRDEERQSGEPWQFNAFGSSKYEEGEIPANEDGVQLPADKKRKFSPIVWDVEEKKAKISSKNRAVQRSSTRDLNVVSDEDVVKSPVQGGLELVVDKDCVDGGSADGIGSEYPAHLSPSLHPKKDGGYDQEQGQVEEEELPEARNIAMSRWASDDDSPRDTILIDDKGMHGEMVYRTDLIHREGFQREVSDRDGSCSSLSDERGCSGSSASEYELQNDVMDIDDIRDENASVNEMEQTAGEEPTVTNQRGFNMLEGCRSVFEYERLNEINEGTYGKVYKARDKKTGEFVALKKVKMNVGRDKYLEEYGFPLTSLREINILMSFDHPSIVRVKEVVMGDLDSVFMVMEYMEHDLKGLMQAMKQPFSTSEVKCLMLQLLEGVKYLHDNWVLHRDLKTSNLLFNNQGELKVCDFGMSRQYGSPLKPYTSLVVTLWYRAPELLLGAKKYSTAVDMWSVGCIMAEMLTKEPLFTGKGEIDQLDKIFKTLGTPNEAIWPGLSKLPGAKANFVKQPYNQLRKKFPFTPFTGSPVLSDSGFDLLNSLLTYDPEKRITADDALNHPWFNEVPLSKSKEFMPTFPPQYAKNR
UniProt A0A8F2YJ49: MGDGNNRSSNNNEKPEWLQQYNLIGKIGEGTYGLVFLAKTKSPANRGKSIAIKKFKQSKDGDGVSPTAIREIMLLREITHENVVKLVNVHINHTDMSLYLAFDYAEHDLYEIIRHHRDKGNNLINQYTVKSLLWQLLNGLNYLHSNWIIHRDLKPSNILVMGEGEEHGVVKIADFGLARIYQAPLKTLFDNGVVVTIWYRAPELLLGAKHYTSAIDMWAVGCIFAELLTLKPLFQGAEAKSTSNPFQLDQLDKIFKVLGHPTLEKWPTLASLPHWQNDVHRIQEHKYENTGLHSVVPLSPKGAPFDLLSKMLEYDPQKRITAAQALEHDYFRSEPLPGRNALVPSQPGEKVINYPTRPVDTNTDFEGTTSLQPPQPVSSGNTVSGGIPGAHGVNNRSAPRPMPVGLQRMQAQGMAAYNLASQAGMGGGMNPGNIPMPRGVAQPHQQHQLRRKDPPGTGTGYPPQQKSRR
UniProt A0A8F2YJ26: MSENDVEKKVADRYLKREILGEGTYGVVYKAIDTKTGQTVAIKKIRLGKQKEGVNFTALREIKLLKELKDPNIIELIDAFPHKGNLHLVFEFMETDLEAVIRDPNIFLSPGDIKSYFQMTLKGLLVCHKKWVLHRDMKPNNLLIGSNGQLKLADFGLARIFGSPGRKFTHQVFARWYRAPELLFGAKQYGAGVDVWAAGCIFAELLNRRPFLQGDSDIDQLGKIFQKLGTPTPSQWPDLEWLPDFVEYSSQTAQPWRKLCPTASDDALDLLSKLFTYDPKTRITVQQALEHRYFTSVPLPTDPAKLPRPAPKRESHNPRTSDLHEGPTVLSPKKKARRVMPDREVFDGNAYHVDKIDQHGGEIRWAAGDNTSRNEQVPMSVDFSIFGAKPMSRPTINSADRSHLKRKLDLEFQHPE
UniProt A0A8F3BS08: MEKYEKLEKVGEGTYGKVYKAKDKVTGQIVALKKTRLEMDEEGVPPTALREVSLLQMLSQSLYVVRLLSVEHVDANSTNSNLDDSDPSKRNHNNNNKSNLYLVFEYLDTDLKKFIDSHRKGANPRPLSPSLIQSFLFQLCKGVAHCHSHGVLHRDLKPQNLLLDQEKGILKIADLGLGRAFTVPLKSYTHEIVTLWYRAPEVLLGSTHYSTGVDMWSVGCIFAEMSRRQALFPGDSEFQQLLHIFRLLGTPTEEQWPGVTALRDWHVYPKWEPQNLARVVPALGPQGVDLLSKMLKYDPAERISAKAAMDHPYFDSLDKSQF
UniProt A0A8F3BQL1: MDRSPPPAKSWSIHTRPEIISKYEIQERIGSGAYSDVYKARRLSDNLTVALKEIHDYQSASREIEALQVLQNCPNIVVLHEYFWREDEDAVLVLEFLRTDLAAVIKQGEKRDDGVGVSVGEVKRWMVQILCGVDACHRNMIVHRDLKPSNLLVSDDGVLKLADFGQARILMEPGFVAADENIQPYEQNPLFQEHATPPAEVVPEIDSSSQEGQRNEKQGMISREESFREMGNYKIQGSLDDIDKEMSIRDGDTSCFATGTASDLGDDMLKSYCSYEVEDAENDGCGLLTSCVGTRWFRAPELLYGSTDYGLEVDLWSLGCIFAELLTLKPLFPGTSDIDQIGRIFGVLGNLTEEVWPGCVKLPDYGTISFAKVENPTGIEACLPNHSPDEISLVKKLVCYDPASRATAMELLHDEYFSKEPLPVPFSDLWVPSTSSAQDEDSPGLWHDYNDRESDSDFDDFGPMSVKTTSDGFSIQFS
UniProt A0A8F2YJ19: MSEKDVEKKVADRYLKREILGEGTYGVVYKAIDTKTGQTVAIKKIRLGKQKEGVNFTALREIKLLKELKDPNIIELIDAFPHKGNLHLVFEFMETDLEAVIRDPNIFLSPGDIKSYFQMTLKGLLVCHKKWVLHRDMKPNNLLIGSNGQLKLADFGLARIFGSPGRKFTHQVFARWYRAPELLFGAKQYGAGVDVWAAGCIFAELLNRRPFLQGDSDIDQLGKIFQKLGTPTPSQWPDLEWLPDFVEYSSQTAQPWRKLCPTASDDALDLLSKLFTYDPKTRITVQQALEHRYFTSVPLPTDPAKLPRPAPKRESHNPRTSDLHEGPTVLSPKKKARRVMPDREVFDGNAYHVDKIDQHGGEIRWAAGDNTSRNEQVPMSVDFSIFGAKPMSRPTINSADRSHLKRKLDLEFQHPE
UniProt A0A8F2YJ43: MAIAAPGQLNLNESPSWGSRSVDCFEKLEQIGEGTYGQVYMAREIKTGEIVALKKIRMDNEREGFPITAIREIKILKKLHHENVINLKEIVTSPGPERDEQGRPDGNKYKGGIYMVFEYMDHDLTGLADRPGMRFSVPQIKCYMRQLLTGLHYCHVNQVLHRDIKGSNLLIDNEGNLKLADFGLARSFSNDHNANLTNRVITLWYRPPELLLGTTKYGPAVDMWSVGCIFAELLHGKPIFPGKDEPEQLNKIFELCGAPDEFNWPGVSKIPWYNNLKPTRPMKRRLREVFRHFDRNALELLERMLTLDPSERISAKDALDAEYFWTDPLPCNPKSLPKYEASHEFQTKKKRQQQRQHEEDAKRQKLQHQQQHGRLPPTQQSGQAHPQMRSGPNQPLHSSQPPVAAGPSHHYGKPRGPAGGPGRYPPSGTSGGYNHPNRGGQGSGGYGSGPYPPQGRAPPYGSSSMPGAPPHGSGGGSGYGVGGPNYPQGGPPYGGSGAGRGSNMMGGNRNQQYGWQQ
UniProt A0A8F2YJH9: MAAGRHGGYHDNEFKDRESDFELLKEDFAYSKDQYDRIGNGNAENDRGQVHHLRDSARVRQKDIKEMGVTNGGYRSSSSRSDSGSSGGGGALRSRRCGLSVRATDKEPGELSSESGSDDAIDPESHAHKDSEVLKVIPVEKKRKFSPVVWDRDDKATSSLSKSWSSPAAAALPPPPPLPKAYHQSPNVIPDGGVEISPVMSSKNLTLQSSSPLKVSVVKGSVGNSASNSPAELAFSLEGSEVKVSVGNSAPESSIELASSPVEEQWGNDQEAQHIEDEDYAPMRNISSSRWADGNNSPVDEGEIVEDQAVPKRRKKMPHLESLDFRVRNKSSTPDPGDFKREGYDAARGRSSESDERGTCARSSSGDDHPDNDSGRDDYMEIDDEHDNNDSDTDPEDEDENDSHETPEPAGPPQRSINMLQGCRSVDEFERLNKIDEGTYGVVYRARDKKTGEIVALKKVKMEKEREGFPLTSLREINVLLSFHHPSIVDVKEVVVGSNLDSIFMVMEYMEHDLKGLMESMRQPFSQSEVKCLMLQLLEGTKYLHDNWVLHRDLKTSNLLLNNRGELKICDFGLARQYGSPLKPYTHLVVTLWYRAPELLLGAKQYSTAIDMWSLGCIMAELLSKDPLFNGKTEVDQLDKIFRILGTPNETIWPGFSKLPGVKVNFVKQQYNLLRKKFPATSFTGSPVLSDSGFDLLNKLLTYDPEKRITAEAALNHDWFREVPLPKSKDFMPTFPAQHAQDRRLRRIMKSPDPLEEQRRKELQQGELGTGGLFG

Target: PtoCYCD3;3 (Populus tomentosa)
Assay: two-hybrid; PtoCYCD3;3 in pGBKT7 (BD), PtoCDKs in pGADT7 (AD); yeast strain AH109; growth on SD/-Leu/-Trp or SD/-Leu/-Trp/-His/+x-α-gal

| Substance | binding |
| --- | --- |
| PtoCDKB2;1 (from UniProt A0A8F3BPS4) | binds |
| PtoCDKG;4 (from UniProt A0A8F2YJJ4) | binds |
| PtoCDKE;2 (from UniProt A0A8F2YJ49) | binds |
| PtoCDKD;2 (from UniProt A0A8F2YJ26) | binds |
| PtoCDKB1;2 (from UniProt A0A8F3BS08) | binds |
| PtoCDKF;1 (from UniProt A0A8F3BQL1) | binds |
| PtoCDKD;1 (from UniProt A0A8F2YJ19) | binds |
| PtoCDKC;2 (from UniProt A0A8F2YJ43) | binds |
| PtoCDKG;3 (from UniProt A0A8F2YJH9) | binds |
